Source: PubChem BioAssay AID493014 (National Center for Advancing Translational Sciences (NCATS), 2011)
The list shows a part of the results. Further columns of the screen follow, without active or inactive calls. Compounds called inactive in the main read-out are mostly missing here. The note in brackets gives the kind of curve behind each potency; many fits are weak.

Experiment: qHTS Assay to Find Inhibitors of Chronic Active B-Cell Receptor Signaling
Conditions: ABC-DLBCL IkBa-CBG/CBR reporter, luminescence ratio (green luciferase fused to IkBa over red control in TMD8 lymphoma cells), 4 h
Outline: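 Concentration-response series (up to 46 uM) were applied to TMD8 dual-reporter cells for 4 h at 37C with doxycycline. Green/red ratio, after filter-overlap correction, defined %Activity; red signal alone was normalised to basal cells and zero luminescence.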

[1] = measured here: CBR red luminescence, cell number
[2] = measured here: IkBa-CBG green luminescence

| Compound | AC50 [1] | AC50 [2] |
| --- | --- | --- |
| Cc1cccc(C(=O)N2CCc3cc(CNC(=O)CSc4ccccc4)ccc32)c1 | 35.5 µM [falling, single point] | – |
| O=S(=O)(Nc1ccc(-n2cccc2)cc1)c1ccc(F)cc1 | 25.1 µM [rising, single point] | – |
| O=C(CCl)N1CCN(S(=O)(=O)Cc2ccccc2)CC1 | 14.6 µM [falling, single point] | – |
| Nc1nc(Nc2ccccc2)nc(NCc2ccco2)c1[N+](=O)[O-] | 23.1 µM [falling, partial curve, poor fit] | – |
| CCn1c(O)c(C=NC2CCCC(C)C2C)sc1=S (stereo not drawn) | 12.6 µM [falling, single point] | – |
| C=CCn1c(SC2CCOC2=O)nc2sc(CC)cc2c1=O (stereo not drawn) | 5.62 µM [rising, partial curve] | – |
| S=C(NCc1ccco1)Nc1ccc(Cl)cc1 | 32.6 µM [falling, single point] | – |
| C=CCN1C(=O)C(CC(=O)O)SC1=Nc1cccc([N+](=O)[O-])c1 (stereo not drawn) | 35.5 µM [rising, single point] | – |
| O=C(Oc1ccccc1)c1ccc2nccnc2c1 | 0.731 µM [rising, full curve, poor fit] | – |
| NC(=O)C1CCN(CC(=O)c2c[nH]c3ccc(F)cc23)CC1 | 29.1 µM [falling, single point] | – |
| O=C(Nc1ccccc1N1CCOCC1)c1cc(Cl)c2c(c1)OCO2 | 23.1 µM [rising, partial curve, poor fit] | – |
| CSc1ncccc1C(=O)Nc1nc2ccc(Oc3ccccc3)cc2s1 | 1.64 µM [rising, full curve, poor fit] | – |
| COc1ccc(-c2nc3nc(C)cc(=O)n3[nH]2)cc1 | 8.2 µM [falling, partial curve] | – |
| Clc1ncnc2c1oc1ccccc12 | 16.4 µM [rising, single point] | – |
| Cc1cc(C(=O)CN2CCN(CC(=O)Nc3cccc(F)c3)CC2)c(C)n1C1CC1 | 16.4 µM [falling, single point] | – |
| Cc1ccc(OCC(=O)Nc2cccc3nsnc23)c(C)c1 | 32.6 µM [falling, single point] | – |
| CCOC(=O)c1sc(-c2ccc(Cl)cc2)nc1O | 12.6 µM [falling, single point] | – |
| CCNC(=O)[C@H]1O[C@@H](n2cnc3c(N)nc(NCCc4ccc(CCC(=O)O)cc4)nc32)[C@H](O)[C@@H]1O | – | 0.398 µM [falling, full curve, poor fit] |
| CCOc1ccc(C(=O)N/N=C/c2ccc(SC)cc2)cc1 | 0.259 µM [falling, full curve] | – |
| CCOC(=O)N1CCN(C(=O)c2noc3c2COc2ccccc2-3)CC1 | 3.98 µM [rising, partial curve, poor fit] | – |
| Cc1ccc(NC(=O)C(OC(=O)c2ccc(NC(N)=O)cc2)c2ccccc2)cc1Cl (stereo not drawn) | 29.1 µM [falling, partial curve, poor fit] | – |

Part of the list above in order of heavy-atom count, rising:

| Compound | AC50 [1] | AC50 [2] |
| --- | --- | --- |
| COc1ccc(-c2nc3nc(C)cc(=O)n3[nH]2)cc1 | 8.2 µM [falling, partial curve] | – |
| C=CCn1c(SC2CCOC2=O)nc2sc(CC)cc2c1=O (stereo not drawn) | 5.62 µM [rising, partial curve] | – |
| Cc1cc(C(=O)CN2CCN(CC(=O)Nc3cccc(F)c3)CC2)c(C)n1C1CC1 | 16.4 µM [falling, single point] | – |

Next results follow:

| Compound | AC50 [1] | AC50 [2] |
| --- | --- | --- |
| N#CCCNS(=O)(=O)c1ccc(C(=O)OCCCOC(=O)c2ccc(S(=O)(=O)NCCC#N)cc2)cc1 | 22.4 µM [falling, partial curve] | – |
| C/C(=N\NC(=O)c1ccc(NS(=O)(=O)c2cccs2)cc1)c1cccs1 | 14.1 µM [falling, partial curve] | – |
| C=CCO/N=C(/CCC)C1=C(N)CC(C)(C)CC1=O | 35.5 µM [rising, single point] | – |
| COc1ccc(NC(=O)CNc2cccc(C#N)c2)cc1Cl | 8.2 µM [rising, partial curve] | – |
| CCOC(=O)CSc1nnc(NC(=O)c2ccc3c(c2)OCO3)s1 | 2.24 µM [falling, full curve] | – |
| COc1ccc2cc(C(=O)N(C)Cc3ccccc3)[nH]c2c1 | 0.447 µM [rising, full curve, poor fit] | – |
| Cc1ccc(C(=O)NC(=S)Nc2ccc(-c3ccc(CO)o3)cc2)cc1 | 3.16 µM [falling, partial curve, poor fit] | – |
| CC1=[N+](C)c2c(ccc3cccnc23)C1(C)C | 17.8 µM [falling, partial curve] | 35.5 µM [rising, partial curve, poor fit] |
| Cc1ccc(-c2nc(-c3ccccn3)no2)cc1Cl | 3.98 µM [falling, full curve] | – |
| CCCCSCc1nc2ccccn2c1Br | 12.6 µM [rising, partial curve, poor fit] | – |
| O=C(Nc1nnc(CCN2CCCCC2)s1)c1ccc(Cl)cc1Cl | 0.631 µM [rising, full curve, poor fit] | – |
| COc1cc(C(=O)NCCOc2ccc(F)cc2)c(Br)c(OC)c1OC | 17.8 µM [rising, partial curve, poor fit] | – |
| COc1ccc(C(=O)OCC(=O)N(C)C2CCS(=O)(=O)C2)cc1S(=O)(=O)N1CCCc2ccccc21 (stereo not drawn) | 10 µM [rising, partial curve, poor fit] | – |
| Cc1ccc2nc(N3CCN(C(=O)C4COc5ccccc5O4)CC3)sc2c1 (stereo not drawn) | 12.6 µM [rising, partial curve, poor fit] | – |
| CCOC(=O)c1c(C)nc(C)c2c(=O)oc3ccccc3c12 | 2.82 µM [rising, partial curve, poor fit] | – |
| CCCC(=O)Nc1ccc(Br)cn1 | 9.2 µM [rising, partial curve, poor fit] | – |
| COc1ccc(OC)c(/C=C2\SC(=S)N(NS(=O)(=O)c3ccccc3)C2=O)c1 | 7.08 µM [falling, partial curve, poor fit] | 15.8 µM [rising, partial curve, poor fit] |
| Cc1ccc(NC2SC(=O)N(CC(=O)O)C2=O)cc1 (stereo not drawn) | 23.1 µM [rising, single point] | – |
| Cc1cccc(/C=N/NC(=O)c2cc3c(s2)-c2ccccc2CC3)c1 | 3.66 µM [falling, partial curve, poor fit] | – |
| CCOC(=O)N1CCN(c2ncnc3c2cnn3-c2ccc(OC)cc2)CC1 | 35.5 µM [rising, single point] | – |
